Binding data for 3 substances are collected here from paper PMC3795673.

Sequences of proteins named here, by UniProt entry; tags and fusion partners are left off. A change or cut given only in a name is not applied to a line headed by its entry. A line that says so, or that is headed by a name, gives the form on record, which may keep a tag or linker.
MDM2-C (endogenous human MDM2 splice isoform C) (human (endogenous in MANCA)) (Q00987, form named): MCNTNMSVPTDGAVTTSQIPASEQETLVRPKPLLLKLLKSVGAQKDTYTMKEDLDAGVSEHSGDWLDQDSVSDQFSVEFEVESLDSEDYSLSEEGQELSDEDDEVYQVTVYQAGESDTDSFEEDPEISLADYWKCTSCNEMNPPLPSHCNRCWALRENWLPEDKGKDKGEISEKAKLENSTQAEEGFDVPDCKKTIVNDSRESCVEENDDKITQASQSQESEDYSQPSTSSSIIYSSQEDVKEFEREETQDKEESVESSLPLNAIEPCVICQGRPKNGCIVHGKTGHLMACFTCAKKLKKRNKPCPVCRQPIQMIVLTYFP
UniProt P11142: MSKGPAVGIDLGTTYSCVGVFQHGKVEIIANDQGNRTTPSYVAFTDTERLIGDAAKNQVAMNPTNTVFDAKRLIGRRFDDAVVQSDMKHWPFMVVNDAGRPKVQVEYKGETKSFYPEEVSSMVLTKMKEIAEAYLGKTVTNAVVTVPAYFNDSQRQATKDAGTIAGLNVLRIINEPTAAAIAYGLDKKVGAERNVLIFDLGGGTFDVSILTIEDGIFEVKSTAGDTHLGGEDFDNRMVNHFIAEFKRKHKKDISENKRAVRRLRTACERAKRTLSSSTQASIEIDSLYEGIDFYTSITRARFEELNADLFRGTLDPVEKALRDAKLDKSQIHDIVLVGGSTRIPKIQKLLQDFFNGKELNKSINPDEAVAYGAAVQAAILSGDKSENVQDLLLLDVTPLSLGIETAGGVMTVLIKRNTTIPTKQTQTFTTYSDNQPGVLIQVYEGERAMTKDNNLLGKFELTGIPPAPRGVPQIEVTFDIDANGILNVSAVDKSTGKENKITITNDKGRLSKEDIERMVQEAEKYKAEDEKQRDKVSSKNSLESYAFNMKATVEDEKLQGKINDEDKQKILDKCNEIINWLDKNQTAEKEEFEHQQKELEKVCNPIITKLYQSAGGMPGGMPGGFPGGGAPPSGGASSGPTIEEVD
UniProt P08238: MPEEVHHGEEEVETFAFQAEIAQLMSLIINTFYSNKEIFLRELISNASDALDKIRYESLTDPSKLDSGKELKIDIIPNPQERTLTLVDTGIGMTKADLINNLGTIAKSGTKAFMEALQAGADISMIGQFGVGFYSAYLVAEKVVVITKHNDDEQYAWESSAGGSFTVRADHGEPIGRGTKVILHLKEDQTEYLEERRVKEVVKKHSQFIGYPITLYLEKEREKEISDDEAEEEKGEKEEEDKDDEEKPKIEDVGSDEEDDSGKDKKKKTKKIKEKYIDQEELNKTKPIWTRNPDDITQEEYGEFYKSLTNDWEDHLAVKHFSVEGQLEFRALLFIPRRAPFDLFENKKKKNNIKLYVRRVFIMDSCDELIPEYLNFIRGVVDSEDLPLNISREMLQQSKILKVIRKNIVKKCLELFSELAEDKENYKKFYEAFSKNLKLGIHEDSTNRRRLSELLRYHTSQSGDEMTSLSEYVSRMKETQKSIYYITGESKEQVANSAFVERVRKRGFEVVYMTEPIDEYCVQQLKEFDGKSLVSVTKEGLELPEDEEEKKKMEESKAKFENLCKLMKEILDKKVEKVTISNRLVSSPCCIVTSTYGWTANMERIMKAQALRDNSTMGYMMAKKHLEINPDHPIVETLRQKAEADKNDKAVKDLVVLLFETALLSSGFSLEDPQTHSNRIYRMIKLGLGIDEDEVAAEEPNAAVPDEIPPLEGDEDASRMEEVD
UniProt P17844: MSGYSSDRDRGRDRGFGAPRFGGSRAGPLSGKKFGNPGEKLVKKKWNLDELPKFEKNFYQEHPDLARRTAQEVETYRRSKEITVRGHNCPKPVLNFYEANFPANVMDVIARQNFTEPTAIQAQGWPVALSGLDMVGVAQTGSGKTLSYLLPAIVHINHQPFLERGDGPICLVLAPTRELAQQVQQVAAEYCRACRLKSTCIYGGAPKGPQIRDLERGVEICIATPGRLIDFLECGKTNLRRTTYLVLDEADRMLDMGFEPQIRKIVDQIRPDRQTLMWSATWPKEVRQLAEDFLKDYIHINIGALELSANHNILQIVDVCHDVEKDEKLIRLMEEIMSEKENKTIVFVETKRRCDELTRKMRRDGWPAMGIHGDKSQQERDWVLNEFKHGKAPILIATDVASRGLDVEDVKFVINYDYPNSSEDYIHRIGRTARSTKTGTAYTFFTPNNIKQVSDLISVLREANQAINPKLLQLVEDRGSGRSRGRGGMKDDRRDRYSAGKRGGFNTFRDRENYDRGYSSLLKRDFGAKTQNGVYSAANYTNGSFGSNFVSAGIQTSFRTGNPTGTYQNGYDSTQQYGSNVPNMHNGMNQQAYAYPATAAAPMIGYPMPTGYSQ

No constants are given. Whether binding was seen depends on the method and setting. In cells and extracts the contact can be indirect. These calls come from enrichment with a bait or labelling near it, and not all partners need be listed.

For this assay, the target named is MDM2-C (endogenous human MDM2 splice isoform C) (human (endogenous in MANCA)) (UniProt Q00987). The experiment in a line: affinity purification with mass spectrometry; MDM2 C410 serum immunoprecipitation from MANCA whole cell extracts (pre-immune serum as control), SDS-PAGE, Coomassie-stained bands excised, trypsin digestion, LC-MS/MS, Scaffold 3 analysis (at least five peptides with 95% probability).

As to “Heat Shock Cognate 71 Protein (HSP7C) (from UniProt P11142 1-646)”, the binding result is “binds”.
With “Heat Shock protein HSP90β (HS90B) (from UniProt P08238 1-724)” the entry was “binds”; with “probable ATP-dependent RNA helicase (DDX5) (from UniProt P17844 1-614)”, “binds”.
